The results in this text go back to PubChem BioAssay AID493014 (National Center for Advancing Translational Sciences (NCATS), 2011).

This is one part of the list. Shown are side measurements of this screen, not its main read-out; they come without a call. Most of these compounds were active or inconclusive in the main read-out, so they are no random draw. The note in brackets gives the kind of curve behind each potency; many fits are weak.

The nature of the experiment: qHTS Assay to Find Inhibitors of Chronic Active B-Cell Receptor Signaling. Conditions: ABC-DLBCL IkBa-CBG/CBR reporter, luminescence ratio (green luciferase fused to IkBa over red control in TMD8 lymphoma cells), 4 h. In short, it runs like this:
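Concentration-response series (up to 46 uM) were applied to TMD8 dual-reporter cells for 4 h at 37C with doxycycline. Green/red ratio, after filter-overlap correction, defined %Activity; red signal alone was normalised to basal cells and zero luminescence.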
For orientation: qHTS replaces the single test concentration by a dilution series.

[1] abbreviates: measured here: CBR red luminescence, cell number.
The mark [2] stands for this setting: measured here: IkBa-CBG green luminescence.

As usually defined, the AC50 is the concentration at which the activity in the assay is half-maximal. Take `COc1cc(NC(=O)Cn2c(-c3ccccc3)cc(C(C)=O)c2C)cc(OC)c1`: under setting [1], the AC50 is 0.708 µM [rising, full curve, poor fit].

Take `CCN(CC)CCCNC(=O)c1cc2c(Cl)nc3ccccc3c2s1`: the AC50 reads like this: under setting [1], 11.2 µM [falling, partial curve, poor fit]; under setting [2], 11.2 µM [rising, partial curve, poor fit].

As to `CN(CCNC(=O)c1cc2c(-c3ccccc3F)nn(C)c2s1)C1CCCCC1`, the AC50 under setting [1] was 35.5 µM [falling, single point].

Turning to `CC1(C)CC(=O)C=C(c2ccc(F)cc2OCc2ccccc2)C1`, under setting [1], the AC50 was 16.4 µM [rising, partial curve].

In the case of `CC(CCCCC(=O)Nc1ccc(C(F)(F)F)cc1)NCCc1cnc[nH]1` (centres undefined), the half-maximal activity concentration (AC50) under setting [1] was 17.8 µM [falling, partial curve].

For the compound `Cc1ccc(C(=O)C(C)N2C(=O)NC(C)(c3ccccc3)C2=O)cc1` (centres undefined), the AC50 under setting [1] is 11.2 µM [rising, partial curve, poor fit].

As for `COc1ccc(S(=O)(=O)N(C)C)cc1NC(=O)COC(=O)C1CC1`, the AC50 under setting [1] is 23.1 µM [rising, single point].

Turning to `O=C(COC(=O)c1cccc(Cl)c1Cl)NCc1cccs1`, under setting [1], the AC50 was 25.9 µM [falling, partial curve, poor fit].

Regarding `COc1ccc(-c2noc(-c3cccs3)n2)cc1OC`, the concentration at half-maximal activity (AC50) under setting [1] was 5.01 µM [rising, partial curve, poor fit].

In the case of `Cc1ccc2c(c1)N(C(=O)NC1CCCCC1)C(C)(C)CC2C` (centres undefined), the AC50 under setting [1] is 0.103 µM [rising, full curve, poor fit].

As to `Cc1ccc([N+](=O)[O-])cc1-c1ccc(/C=N\n2nnnc2N)o1`, the AC50 under setting [1] was 23.1 µM [rising, partial curve, poor fit].

As for `COc1ccc(CNC(=O)C2CC(=O)N(C3CCCC3)C2)cc1` (centres undefined), the AC50 under setting [1] was 0.126 µM [rising, full curve, poor fit].

Regarding `Cc1cc(O)c(C(c2ccccc2)N2CCC(C)CC2)c(=O)n1Cc1ccco1` (centres undefined), the AC50 is 22.4 µM [falling, partial curve, poor fit] under setting [1] and 14.1 µM [rising, single point] under setting [2].

In the case of `CC(OC(=O)c1ccc(S(=O)(=O)NCc2ccco2)cc1)C(=O)Nc1ccccc1` (centres undefined), the AC50 under setting [1] is 29.1 µM [rising, single point].

Take `COc1cccc2c(=O)n(CC(=O)N3CCN(c4ccccc4)CC3)ccc12`: the AC50 under setting [1] is 29.1 µM [rising, single point].

For the compound `Cc1c(N=C2N=C(NC(=O)c3cccs3)c3ccccc32)c(=O)n(-c2ccccc2)n1C`, the AC50 under setting [1] was 1.12 µM [rising, full curve, poor fit].

`Cn1cc2ccc(N)cc2n1`: the AC50 under setting [2] is 14.1 µM [rising, partial curve, poor fit].

For `COC(=O)[C@H](CC(C)C)NC(=O)NCCC1=CCCCC1`, the AC50 under setting [1] is 8.91 µM [rising, partial curve, poor fit].

In the case of `O=c1oc2ccccc2c(NC2CCCCC2)c1NS(=O)(=O)c1ccc(F)cc1`, the AC50 under setting [1] is 7.94 µM [falling, partial curve, poor fit].

For `Oc1cccc(/C=N/Nc2ccc(Cl)nn2)c1`, the AC50 under setting [1] was 14.1 µM [falling, partial curve].

Regarding `Nc1nc(NC(=O)c2ccccc2)nn1-c1ccccc1`, the AC50 under setting [1] was 2.31 µM [falling, full curve].

With `O=C(O)c1ccc(CSc2nnc(SCc3ccccc3)s2)cc1`, the AC50 under setting [1] is 20 µM [rising, single point].

As to `CCCCCCCCCCCC(=O)NC(C(=O)O)C(O)c1ccccc1` (centres undefined), the AC50 under setting [1] is 35.5 µM [falling, single point].

`COc1cc(OC)c2c(-c3cccc(-c4ccc(NC(C)=O)cc4)c3)cc(=O)oc2c1`: the AC50 under setting [1] is 1.84 µM [rising, partial curve, poor fit] and the AC50 under setting [2] was 2.91 µM [falling, full curve].

In the case of `Cc1ccc(CNC(=O)CNC(=O)c2ccco2)cc1`, the AC50 under setting [1] is 35.5 µM [rising, single point].

Consider `CCOC(=O)C1CCN(C(=O)CSc2ccc(Br)cc2)CC1`, for which, under setting [1], the AC50 was 11.2 µM [falling, partial curve].

As to `CC(C)CCOc1ccc(C(=O)N2CCN(c3ncccn3)CC2)cc1`, the AC50 under setting [1] was 0.501 µM [rising, full curve, poor fit].

For the compound `COc1cccc(Nc2nc(NCC3CCCO3)c3ccccc3n2)c1` (centres undefined), under setting [1], the AC50 is 18.4 µM [falling, partial curve, poor fit].

With `CCOC(=O)c1[nH]c2c(c1-c1ccccc1)C(=O)CC(c1ccccc1)C2` (centres undefined), the AC50 under setting [1] was 0.651 µM [rising, full curve].

As for `CCCCC(=O)c1ccc(O)cc1`, the AC50 under setting [1] is 13 µM [rising, partial curve, poor fit].

Consider `CC(=O)NC(Cc1ccc(C(C)C)cc1)C(=O)NC1CCN(C(=O)c2cccc(C)c2)CC1` (centres undefined), for which the AC50 under setting [1] was 0.891 µM [falling, full curve, poor fit].

With `CCOc1cc(N2CCOCC2)c(OCC)cc1NC(=O)c1c(-c2ccccc2)noc1C`, the AC50 under setting [1] is 4.11 µM [rising, full curve].

On to `O=C(NCCNc1ccc([N+](=O)[O-])cc1)c1ccccc1Br`, for which, under setting [1], the concentration at half-maximal activity (AC50) was 35.5 µM [falling, single point].

Regarding `O=C1/C(=C/c2ccc(F)cc2)SC(=S)N1NS(=O)(=O)c1ccccc1`, the AC50 under setting [1] was 22.4 µM [falling, single point].

`COc1ccccc1NC(=O)C1=C(C)NC(SCC(=O)c2ccccc2)=C(C#N)C1c1ccco1` (centres undefined): the AC50 under setting [1] is 1.03 µM [falling, full curve].

Consider `COc1cccc(N2CCN(C(=O)c3ccc(CS(=O)c4ccccc4Cl)o3)CC2)c1` (centres undefined), for which the AC50 is 12.6 µM [rising, partial curve] under setting [1] and 5.01 µM [falling, full curve] under setting [2].

As to `CCC(c1nnnn1Cc1ccco1)N(CCc1ccccc1)Cc1cc2cccc(C)c2[nH]c1=O` (centres undefined), under setting [1], the AC50 was 25.9 µM [falling, single point].

As for `COc1ccccc1N1CCN(S(=O)(=O)c2ccccc2)CC1`, the AC50 is, setting by setting: under setting [1], 18.4 µM [rising, partial curve, poor fit]; under setting [2], 18.4 µM [falling, single point].

On to `CCOc1ccc(NC(=O)c2ccc(NC(=O)c3ccc(CN4CCOCC4)cc3)cc2)cc1`, for which the AC50 under setting [1] was 2.51 µM [falling, partial curve, poor fit].

Take `CCCCC(=O)NC(Nc1cc(C)ccn1)(C(=O)OCC)C(F)(F)F` (centres undefined): the concentration at half-maximal activity (AC50) under setting [1] is 6.31 µM [rising, partial curve, poor fit].

Regarding `N=c1n(CCN2CCCCC2)c2ccccc2n1CC(=O)c1cccc([N+](=O)[O-])c1`, under setting [1], the AC50 is 11.2 µM [rising, partial curve].

Consider `c1cncc(-c2nc3ccccc3[nH]2)c1`, for which, under setting [2], the AC50 is 35.5 µM [rising, partial curve, poor fit].

As to `Nc1c2c(nc3ccccc13)CCCC2=O`, the AC50 under setting [1] is 14.1 µM [falling, partial curve, poor fit].

With `COc1cc2sc(-c3ccccc3OC)c(-c3ccc(OCCN4CCOCC4)cc3)c2cc1OC`, the AC50 under setting [2] was 14.6 µM [falling, partial curve].

Take `Cc1nc(CSc2nnc(N)s2)cs1`: the AC50 under setting [1] was 17.8 µM [rising, single point].

Turning to `CCOC(=O)c1ccc(NC(=O)C(CC)CC)cc1`, the AC50 under setting [1] is 6.31 µM [rising, single point].

Consider `CC(=O)COc1ccc2c3c(c(=O)oc2c1)CCCC3`, for which the concentration at half-maximal activity (AC50) under setting [1] is 7.08 µM [rising, full curve, poor fit].

`CCCCCOC(=O)c1cc(=O)[nH]c2ccccc12`: the AC50 under setting [1] is 0.0891 µM [rising, full curve, poor fit].

For the compound `Cn1cc(CN2CCC(n3nccc3NC(=O)c3ccccc3Cl)CC2)c2ccccc21`, the AC50 under setting [1] was 12.6 µM [falling, single point].

`N#CC1(C#N)[C@@H](C(=O)C23CC4CC(CC(C4)C2)C3)C12CCOCC2`: the AC50 under setting [1] is 32.6 µM [rising, partial curve, poor fit].

As to `COC(=O)C1=C(C(=O)OC)SC2(S1)C(C(=O)OC)=C(C(=O)OC)SC1=C2c2cccc(C)c2NC1(C)C`, the AC50 under setting [1] was 2.59 µM [rising, full curve, poor fit].

In the case of `Clc1nc(-c2ccccn2)nc2scc(-c3ccccc3)c12`, the AC50 under setting [1] was 20.6 µM [falling, partial curve, poor fit].

Consider `Oc1ccccc1-c1nnc(COc2ccc(Cl)cc2Cl)o1`, for which, under setting [1], the AC50 is 16.4 µM [falling, single point].

`CC1CCCC(C)N1C(=O)Nc1cccc(Cl)c1` (centres undefined): under setting [1], the AC50 is 4.61 µM [rising, single point].

For `CCOc1ccc(Nc2nnc(SCc3nc4ccccc4c(=O)[nH]3)s2)cc1`, the AC50 under setting [1] was 0.178 µM [rising, full curve, poor fit].

Consider `CCOc1ccccc1NC(=O)CN(C)S(=O)(=O)c1ccc2[nH]c(=O)oc2c1`, for which the AC50 under setting [1] was 0.794 µM [rising, full curve, poor fit].

As to `COc1cccc(C(=O)NCCSCc2ccccc2Cl)c1`, under setting [1], the AC50 is 4.47 µM [falling, partial curve, poor fit].

Regarding `CN(C)/C=N/C(=S)Nc1ccccc1F`, under setting [1], the AC50 was 0.282 µM [falling, full curve].

As to `O=C(NCc1cccs1)C1CCC(CNS(=O)(=O)c2ccc(Br)s2)CC1` (centres undefined), under setting [1], the AC50 was 16.4 µM [rising, single point].

On to `c1ccc(-c2ccccc2-c2nc(-c3ccncc3)no2)cc1`, for which the AC50 under setting [1] is 6.51 µM [rising, partial curve, poor fit].

As for `O=c1c2ccccc2nc(SCCN2CCCCC2)n1CCc1ccccc1`, the AC50 under setting [1] was 22.4 µM [falling, single point].

As for `COc1ccccc1NC(=O)N1CCOCC1`, the AC50 under setting [1] is 11.2 µM [falling, partial curve].

As to `Cc1nc2c3cc(F)ccc3n(Cc3ccccc3)c2s1`, the AC50 is, setting by setting: under setting [1], 23.1 µM [rising, partial curve]; under setting [2], 20.6 µM [falling, single point].
